In paper PMC7174303:
No constants are given. Whether binding was seen depends on the method and setting. Binding seen in cells or lysates may run through a third protein. Some entries that bind do so weakly or less than the wild type.

Amino acid sequences for entries named in this document (tags omitted).
UniProt Q04887: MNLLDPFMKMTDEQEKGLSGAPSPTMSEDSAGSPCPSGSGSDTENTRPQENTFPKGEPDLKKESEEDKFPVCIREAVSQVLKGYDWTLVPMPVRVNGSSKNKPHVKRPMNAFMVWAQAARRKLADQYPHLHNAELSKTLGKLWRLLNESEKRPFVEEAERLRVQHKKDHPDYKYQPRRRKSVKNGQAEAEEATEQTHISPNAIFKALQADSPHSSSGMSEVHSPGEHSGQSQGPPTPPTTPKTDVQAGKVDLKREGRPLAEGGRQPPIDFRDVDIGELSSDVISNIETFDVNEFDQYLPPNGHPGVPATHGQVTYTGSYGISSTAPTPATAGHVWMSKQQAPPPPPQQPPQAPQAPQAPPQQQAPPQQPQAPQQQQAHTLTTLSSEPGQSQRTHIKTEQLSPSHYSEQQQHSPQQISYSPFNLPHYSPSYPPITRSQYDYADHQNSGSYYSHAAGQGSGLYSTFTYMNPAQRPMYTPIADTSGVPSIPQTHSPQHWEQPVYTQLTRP

Target: Sox9 (sex-determining region Y (SRY) box 9) (mouse (endogenous in mouse kidney)) (UniProt Q04887)
Assay: co-IP; endogenous proteins in renal tissues (control and AKI); Cdkl5-IP (anti-CDKL5, Millipore MABS1132) and reverse Sox9-IP (anti-SOX9, Abcam ab3697); lysates in modified RIPA buffer with 0.2% beta-maltoside; western blot

binding: binds
B1: cyclin-dependent kinase-like 5 (Cdkl5) (enzyme, UniProt Q3UTQ8 1-938)
chain: MKIPNIGNVMNKFEILGVVGEGAYGVVLKCRHKETHEIVAIKKFKDSEENEEVKETTLRELKMLRTLKQENIVELKEAFRRRGKLYLVFEYVEKNMLELLEEMPNGVPPEKVKSYIYQLIKAIHWCHKNDIVHRDIKPENLLISHNDVLKLCDFGFARNLSEGNNANYTEYVATRWYRSPELLLGAPYGKSVDMWSVGCILGELSDGQPLFPGESEIDQLFTIQKVLGPLPSEQMKLFYSNPRFHGLRFPAVNHPQSLERRYLGILNSVLLDLMKNLLKLDPADRYLTEQCLNHPTFQTQRLLDRSPSRSTKRKPYHVESSTLSNRNQSTKGAALQTHHRSNSKDIQNLSVGLPRAEEGLPANESFLNGNLAGATLSPMHTKTYQASTQPGSSSKDLTNNNIPHLLSPKEAKSKTEFDFNIDTKPSEGPGTKYLKSSTRSQQNRHSFMESSQSKAGTLQPSEKQSRHSYIDTIPQSSRSPSYRTKAKSHGALSDSKSVSNLSEARAQITETNTSRYFPSSCLDLNSPTSPTPTRHTDTRTLLSPSGRNNRNEGTLDSRRTTTRHSKTMEELKLPEHMDSSHSHSLSAPHESFSYGLGYTSPFSSQQRPHRHSMYVTRDKVRAKGLDGSLSIGQGMAARANSLQLLSPQPGEQLPPEMTVARPSVKESSREGASSFHTRQKSEGGVYHDPHSDDGTAPKENRHLYNDPVPRRVGSFYRVPSPRPDNSFHENNVSTRVSSLPSDSSSGTNHSKRQPGFDPWKSPENISHADQLKEKEKQGFFRSMKKKKKKTQTVPNTDGPDLLTLQKAIHSSSTASSRPKEWRPEKLSDLQTQSQPLKSLRKLLHLSSSTNHPASSDPRFQPLTAQQAKNSFSEIRIHPLSQATGGSSNIRQEPTPKGRPALQLPGSSLLRYNGWKHSRSRSSQPDEVIFLASHEKWKQ
